# From publication PMC5650320
# No constants are given. Whether binding was seen depends on the method and setting. Binding seen in cells or lysates may run through a third protein. Some results given as binding are weak or reduced against the parent protein; the word gives no strength.
# Target: T1, glial cell line-derived neurotrophic factor (GDNF) (rat (endogenous in C6)) (UniProt Q07731)
# T1 sequence: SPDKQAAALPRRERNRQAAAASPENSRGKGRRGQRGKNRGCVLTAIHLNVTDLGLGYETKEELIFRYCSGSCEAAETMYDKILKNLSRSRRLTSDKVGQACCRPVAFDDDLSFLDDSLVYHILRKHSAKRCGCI
# Test: co-IP; membrane proteins of C6 glioma cells treated with or without 40 ng/ml GDNF; protein A/G-agarose beads with anti-GDNF, anti-NRP1 or IgG, overnight at 4°C; Western blot with anti-GDNF or anti-NRP1
substance,measurement,value
neuropilin-1 (NRP1) (from UniProt Q9QWJ9 22-922) (receptor),binding,binds
